Assay results: PMC4552448 (Journal of medicinal chemistry, 2015)

Tested on: MCF-7 human breast carcinoma cells
Assay: Growth inhibition of MCF-7 cells
Format: cell-based
Settings: MCF7, 96 h, read-out: MCF-7 IC50 ± SD

## COc1cc2c(c(OC)c1OC)-c1ccc(OC)c(=O)cc1[C@@H](NC(C)=O)CC2 [compound 1, Colchicine]
  IC50: 5 ± 1 nM
